Data: publication PMC3362529
No constants are given. Whether binding was seen depends on the method and setting. Binding seen in cells or lysates may run through a third protein. A result given as binding can be weak or reduced; the word gives no strength. Where a sequence is shown, tags or fusion partners need not be part of it.

Target: T1, GFP-DmRad1 (Drosophila) (UniProt Q9VQD4)
T1 sequence: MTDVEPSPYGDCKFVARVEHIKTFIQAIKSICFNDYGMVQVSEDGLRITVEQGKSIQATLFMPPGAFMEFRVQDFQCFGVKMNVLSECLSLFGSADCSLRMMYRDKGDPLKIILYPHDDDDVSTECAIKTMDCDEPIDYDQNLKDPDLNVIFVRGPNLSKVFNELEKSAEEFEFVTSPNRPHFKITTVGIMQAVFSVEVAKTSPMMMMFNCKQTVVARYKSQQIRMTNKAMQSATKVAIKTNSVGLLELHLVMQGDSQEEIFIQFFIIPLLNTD
Assay: co-IP; HA-DmHus1, FLAG-DmRad9A and GFP-DmRad1 co-expressed in S2 cells; lysis buffer PBS, 1% Triton X-100, protease inhibitors; pre-cleared extracts incubated overnight at 4°C with anti-GFP rabbit antibodies, recovered on protein A-coated beads for 2 h at 4°C; western blots with anti-HA or …; normal rabbit IgG as negative control

- binding: binds
Substance: HA-DmHus1 (Drosophila)
